These are yes or no findings as the source states them, for the method shown. In cells and extracts the contact can be indirect. Binding can be weak; no strength is given.
Biological target: αvβ3 integrin (mouse (endogenous in TH2 cells))
Assay: co-IP; TH2 cell lysate (30 mM Tris pH 7.4, 120 mM NaCl, 2 mM KCl, 1% Triton-X-100, 2 mM EDTA) incubated with anti-αv (CD51) or anti-β3 (CD61) antibody overnight at 4°C; protein A/G dynabeads; western blot with anti-Thy1

B1: Thy1 (CD90) (protein, UniProt P01831 20-131)
chain: QKVTSLTACLVNQNLRLDCRHENNTKDNSIQHEFSLTREKRKHVLSGTLGIPEHTYRSRVTLSNQPYIKVLTLANFTTKDEGDYFCELQVSGANPMSSNKSISVYRDKLVKC
binding: binds

From paper PMC7614022
